Consider three molecules from article PMC7378325.

Chains of the proteins cited; added tags and fusions are not shown. Residues count along the entry.
UniProt Q9Z0U4, residues 20-960: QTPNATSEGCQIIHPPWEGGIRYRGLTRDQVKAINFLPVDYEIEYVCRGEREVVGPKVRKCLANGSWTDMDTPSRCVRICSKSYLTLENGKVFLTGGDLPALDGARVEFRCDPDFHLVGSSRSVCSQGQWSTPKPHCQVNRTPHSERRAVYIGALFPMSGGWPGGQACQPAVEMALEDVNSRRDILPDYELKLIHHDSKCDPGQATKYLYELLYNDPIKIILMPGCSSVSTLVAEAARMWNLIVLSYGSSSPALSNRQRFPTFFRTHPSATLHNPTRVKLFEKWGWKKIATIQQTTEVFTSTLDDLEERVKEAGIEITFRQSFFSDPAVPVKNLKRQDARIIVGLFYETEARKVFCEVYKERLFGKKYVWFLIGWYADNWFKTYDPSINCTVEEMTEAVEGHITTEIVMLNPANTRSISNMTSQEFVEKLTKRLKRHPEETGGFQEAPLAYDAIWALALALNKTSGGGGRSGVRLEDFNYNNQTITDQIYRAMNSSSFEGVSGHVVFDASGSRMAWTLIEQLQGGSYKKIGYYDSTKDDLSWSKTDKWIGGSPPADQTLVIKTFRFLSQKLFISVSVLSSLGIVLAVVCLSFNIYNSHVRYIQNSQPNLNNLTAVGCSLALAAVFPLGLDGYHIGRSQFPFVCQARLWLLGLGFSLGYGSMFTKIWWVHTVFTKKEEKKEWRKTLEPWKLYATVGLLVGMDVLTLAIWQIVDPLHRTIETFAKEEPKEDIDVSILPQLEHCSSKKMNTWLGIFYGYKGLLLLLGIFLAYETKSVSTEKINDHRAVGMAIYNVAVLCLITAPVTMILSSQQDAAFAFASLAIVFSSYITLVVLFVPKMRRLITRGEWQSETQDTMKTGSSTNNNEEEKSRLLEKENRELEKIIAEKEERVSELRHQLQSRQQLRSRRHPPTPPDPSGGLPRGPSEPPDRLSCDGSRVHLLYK

Assay [1] concerns the target T1, Fibulin-2-Flag (UniProt P37889).
T1 sequence: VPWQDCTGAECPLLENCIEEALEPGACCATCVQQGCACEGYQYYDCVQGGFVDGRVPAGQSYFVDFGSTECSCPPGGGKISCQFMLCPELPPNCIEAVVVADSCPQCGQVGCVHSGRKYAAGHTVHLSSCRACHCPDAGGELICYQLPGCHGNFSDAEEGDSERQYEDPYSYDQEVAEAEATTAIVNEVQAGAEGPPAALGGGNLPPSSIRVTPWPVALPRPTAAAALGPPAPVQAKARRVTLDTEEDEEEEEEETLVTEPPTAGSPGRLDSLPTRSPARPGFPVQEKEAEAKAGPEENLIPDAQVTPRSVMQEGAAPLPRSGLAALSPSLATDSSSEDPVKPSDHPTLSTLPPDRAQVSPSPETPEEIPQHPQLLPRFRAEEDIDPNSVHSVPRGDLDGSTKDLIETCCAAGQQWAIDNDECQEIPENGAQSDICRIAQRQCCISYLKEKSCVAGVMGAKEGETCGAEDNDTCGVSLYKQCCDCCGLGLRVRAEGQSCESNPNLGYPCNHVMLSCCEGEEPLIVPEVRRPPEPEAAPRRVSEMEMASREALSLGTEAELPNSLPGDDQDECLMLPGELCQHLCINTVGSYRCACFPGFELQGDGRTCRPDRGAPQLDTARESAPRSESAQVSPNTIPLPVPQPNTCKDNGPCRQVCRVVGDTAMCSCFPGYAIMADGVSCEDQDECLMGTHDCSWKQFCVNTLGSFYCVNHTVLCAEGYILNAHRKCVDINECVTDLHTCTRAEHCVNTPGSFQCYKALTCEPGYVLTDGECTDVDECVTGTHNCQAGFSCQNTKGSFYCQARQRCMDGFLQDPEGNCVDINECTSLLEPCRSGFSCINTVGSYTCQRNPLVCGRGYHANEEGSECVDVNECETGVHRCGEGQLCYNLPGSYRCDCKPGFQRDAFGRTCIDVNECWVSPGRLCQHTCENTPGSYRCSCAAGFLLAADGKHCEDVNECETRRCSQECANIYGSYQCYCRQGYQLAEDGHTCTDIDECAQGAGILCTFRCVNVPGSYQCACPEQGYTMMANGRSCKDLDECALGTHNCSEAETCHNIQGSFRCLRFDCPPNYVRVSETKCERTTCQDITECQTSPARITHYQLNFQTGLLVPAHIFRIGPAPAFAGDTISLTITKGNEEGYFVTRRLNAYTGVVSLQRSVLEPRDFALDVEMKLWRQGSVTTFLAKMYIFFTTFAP
Kind of assay: co-IP; COS-7 cells triple transfected with myc-GABAB1a or myc-GABAB1b, HA-GABAB2 and fibulin-2-Flag; extract in PBS with 1% CHAPS, 25 mM Hepes, 150 mM NaCl, pH 7.4; IP with anti-myc or anti-flag, Western blot. (In general: In western blotting, separated proteins are transferred to a membrane and probed.)

Assay [2] concerns the target myc-GABAB1a (UniProt Q9Z0U4). As to the kind of experiment: co-IP; COS-7 cells transfected with myc-GABAB1a and HA-GABAB2, with or without fibulin-2-Flag; extract in PBS with 1% CHAPS, 25 mM Hepes, 150 mM NaCl, pH 7.4; Western blot.
Assay [3] deals with myc-GABAB1a (UniProt Q9Z0U4). Kind of assay: co-IP; COS-7 cells double transfected with myc-GABAB1a and fibulin-2-Flag, without the GABAB2-expressing plasmid; extract in PBS with 1% CHAPS, 25 mM Hepes, 150 mM NaCl, pH 7.4; Western blot.
Assay [4] addresses myc-GABAB1a (UniProt Q9Z0U4). Kind of assay: co-IP; COS-7 cells triple transfected with myc-GABAB1a or myc-GABAB1b, HA-GABAB2 and fibulin-2-Flag; extract in PBS with 1% CHAPS, 25 mM Hepes, 150 mM NaCl, pH 7.4; IP with anti-myc or anti-flag, Western blot.

These are yes or no findings as the source states them, for the method shown. Binding seen in cells or lysates may run through a third protein. Some results given as binding are weak or reduced against the parent protein; the word gives no strength. Tags and fused reporters may be left off the sequences shown.

With “myc-GABAB1a (from UniProt Q9Z0U4 20-960) (receptor)”, the binding entry in assay [1] is on record as “binds”.

B1: HA-GABAB2 (receptor, UniProt O88871 41-940)
chain: WTRGAPRPPPSSPPLSIMGLMPLTKEVAKGSIGRGVLPAVELAIEQIRNESLLRPYFLDLRLYDTECDNAKGLKAFYDAIKYGPNHLMVFGGVCPSVTSIIAESLQGWNLVQLSFAATTPVLADKKKYPYFFRTVPSDNAVNPAILKLLKHFRWRRVGTLTQDVQRFSEVRNDLTGVLYGEDIEISDTESFSNDPCTSVKKLKGNDVRIILGQFDQNMAAKVFCCAFEESMFGSKYQWIIPGWYEPAWWEQVHVEANSSRCLRRSLLAAMEGYIGVDFEPLSSKQIKTISGKTPQQFEREYNSKRSGVGPSKFHGYAYDGIWVIAKTLQRAMETLHASSRHQRIQDFNYTDHTLGKIILNAMNETNFFGVTGQVVFRNGERMGTIKFTQFQDSREVKVGEYNAVADTLEIINDTIRFQGSEPPKDKTIILEQLRKISLPLYSILSALTILGMIMASAFLFFNIKNRNQKLIKMSSPYMNNLIILGGMLSYASIFLFGLDGSFVSEKTFETLCTVRTWILTVGYTTAFGAMFAKTWRVHAIFKNVKMKKKIIKDQKLLVIVGGMLLIDLCILICWQAVDPLRRTVERYSMEPDPAGRDISIRPLLEHCENTHMTIWLGIVYAYKGLLMLFGCFLAWETRNVSIPALNDSKYIGMSVYNVGIMCIIGAAVSFLTRDQPNVQFCIVALVIIFCSTITLCLVFVPKLITLRTNPDAATQNRRFQFTQNQKKEDSKTSTSVTSVNQASTSRLEGLQSENHRLRMKITELDKDLEEVTMQLQDTPEKTTYIKQNHYQELNDILSLGNFTESTDGGKAILKNHLDQNPQLQWNTTEPSRTCKDPIEDINSPEHIQRRLSLQLPILHHAYLPSIGGVDASCVSPCVSPTASPRHRHVPPSFRVMVSGL
Consider B1, for which the binding entry in assay [2] is “binds”.

B2: Fibulin-2-Flag (protein, UniProt P37889 27-1221)
chain: VPWQDCTGAECPLLENCIEEALEPGACCATCVQQGCACEGYQYYDCVQGGFVDGRVPAGQSYFVDFGSTECSCPPGGGKISCQFMLCPELPPNCIEAVVVADSCPQCGQVGCVHSGRKYAAGHTVHLSSCRACHCPDAGGELICYQLPGCHGNFSDAEEGDSERQYEDPYSYDQEVAEAEATTAIVNEVQAGAEGPPAALGGGNLPPSSIRVTPWPVALPRPTAAAALGPPAPVQAKARRVTLDTEEDEEEEEEETLVTEPPTAGSPGRLDSLPTRSPARPGFPVQEKEAEAKAGPEENLIPDAQVTPRSVMQEGAAPLPRSGLAALSPSLATDSSSEDPVKPSDHPTLSTLPPDRAQVSPSPETPEEIPQHPQLLPRFRAEEDIDPNSVHSVPRGDLDGSTKDLIETCCAAGQQWAIDNDECQEIPENGAQSDICRIAQRQCCISYLKEKSCVAGVMGAKEGETCGAEDNDTCGVSLYKQCCDCCGLGLRVRAEGQSCESNPNLGYPCNHVMLSCCEGEEPLIVPEVRRPPEPEAAPRRVSEMEMASREALSLGTEAELPNSLPGDDQDECLMLPGELCQHLCINTVGSYRCACFPGFELQGDGRTCRPDRGAPQLDTARESAPRSESAQVSPNTIPLPVPQPNTCKDNGPCRQVCRVVGDTAMCSCFPGYAIMADGVSCEDQDECLMGTHDCSWKQFCVNTLGSFYCVNHTVLCAEGYILNAHRKCVDINECVTDLHTCTRAEHCVNTPGSFQCYKALTCEPGYVLTDGECTDVDECVTGTHNCQAGFSCQNTKGSFYCQARQRCMDGFLQDPEGNCVDINECTSLLEPCRSGFSCINTVGSYTCQRNPLVCGRGYHANEEGSECVDVNECETGVHRCGEGQLCYNLPGSYRCDCKPGFQRDAFGRTCIDVNECWVSPGRLCQHTCENTPGSYRCSCAAGFLLAADGKHCEDVNECETRRCSQECANIYGSYQCYCRQGYQLAEDGHTCTDIDECAQGAGILCTFRCVNVPGSYQCACPEQGYTMMANGRSCKDLDECALGTHNCSEAETCHNIQGSFRCLRFDCPPNYVRVSETKCERTTCQDITECQTSPARITHYQLNFQTGLLVPAHIFRIGPAPAFAGDTISLTITKGNEEGYFVTRRLNAYTGVVSLQRSVLEPRDFALDVEMKLWRQGSVTTFLAKMYIFFTTFAP
For B2, the binding entry in assay [3] and in assay [4] was “binds” in each case.
